This is an account of results in paper PMC4684289.

Protein sequences, listed by entry. Tags and fused reporters are not part of them.
UniProt P54132: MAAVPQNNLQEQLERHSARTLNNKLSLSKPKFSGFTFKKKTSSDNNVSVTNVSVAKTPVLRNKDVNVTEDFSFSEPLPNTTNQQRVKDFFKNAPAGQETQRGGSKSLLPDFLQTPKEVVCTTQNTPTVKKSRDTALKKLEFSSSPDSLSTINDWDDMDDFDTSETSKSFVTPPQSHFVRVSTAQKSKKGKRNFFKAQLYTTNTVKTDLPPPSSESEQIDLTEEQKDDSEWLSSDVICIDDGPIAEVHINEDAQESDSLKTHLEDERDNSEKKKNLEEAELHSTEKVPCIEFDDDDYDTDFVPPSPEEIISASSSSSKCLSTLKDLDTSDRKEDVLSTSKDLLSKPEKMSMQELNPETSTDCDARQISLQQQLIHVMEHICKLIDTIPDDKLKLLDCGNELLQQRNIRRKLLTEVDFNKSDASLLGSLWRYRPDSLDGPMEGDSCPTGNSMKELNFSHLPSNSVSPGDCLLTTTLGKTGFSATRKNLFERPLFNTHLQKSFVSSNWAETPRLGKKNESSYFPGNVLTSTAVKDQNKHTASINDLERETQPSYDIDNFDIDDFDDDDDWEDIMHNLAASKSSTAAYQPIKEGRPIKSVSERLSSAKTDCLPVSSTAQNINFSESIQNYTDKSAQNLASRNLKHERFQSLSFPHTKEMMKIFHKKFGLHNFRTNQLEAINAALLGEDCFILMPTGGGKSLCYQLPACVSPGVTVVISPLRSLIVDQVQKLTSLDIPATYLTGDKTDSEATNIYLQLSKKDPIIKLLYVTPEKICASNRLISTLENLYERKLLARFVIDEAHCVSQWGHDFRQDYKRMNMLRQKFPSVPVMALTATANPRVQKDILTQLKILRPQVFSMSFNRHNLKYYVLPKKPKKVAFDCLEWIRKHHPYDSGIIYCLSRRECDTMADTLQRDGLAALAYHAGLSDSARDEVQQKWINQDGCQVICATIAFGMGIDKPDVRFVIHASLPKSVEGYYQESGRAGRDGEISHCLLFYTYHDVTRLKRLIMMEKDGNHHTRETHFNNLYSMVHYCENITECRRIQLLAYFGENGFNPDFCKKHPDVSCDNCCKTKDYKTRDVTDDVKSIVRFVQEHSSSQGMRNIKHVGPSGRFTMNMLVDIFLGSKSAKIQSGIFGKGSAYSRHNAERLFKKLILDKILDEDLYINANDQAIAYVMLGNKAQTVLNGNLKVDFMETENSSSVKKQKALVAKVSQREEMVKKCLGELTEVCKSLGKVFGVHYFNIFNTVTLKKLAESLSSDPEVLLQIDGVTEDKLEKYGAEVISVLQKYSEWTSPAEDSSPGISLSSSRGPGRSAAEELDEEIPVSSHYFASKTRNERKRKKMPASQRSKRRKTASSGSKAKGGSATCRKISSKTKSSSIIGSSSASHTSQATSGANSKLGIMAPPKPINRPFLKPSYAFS
UniProt Q9UQ84: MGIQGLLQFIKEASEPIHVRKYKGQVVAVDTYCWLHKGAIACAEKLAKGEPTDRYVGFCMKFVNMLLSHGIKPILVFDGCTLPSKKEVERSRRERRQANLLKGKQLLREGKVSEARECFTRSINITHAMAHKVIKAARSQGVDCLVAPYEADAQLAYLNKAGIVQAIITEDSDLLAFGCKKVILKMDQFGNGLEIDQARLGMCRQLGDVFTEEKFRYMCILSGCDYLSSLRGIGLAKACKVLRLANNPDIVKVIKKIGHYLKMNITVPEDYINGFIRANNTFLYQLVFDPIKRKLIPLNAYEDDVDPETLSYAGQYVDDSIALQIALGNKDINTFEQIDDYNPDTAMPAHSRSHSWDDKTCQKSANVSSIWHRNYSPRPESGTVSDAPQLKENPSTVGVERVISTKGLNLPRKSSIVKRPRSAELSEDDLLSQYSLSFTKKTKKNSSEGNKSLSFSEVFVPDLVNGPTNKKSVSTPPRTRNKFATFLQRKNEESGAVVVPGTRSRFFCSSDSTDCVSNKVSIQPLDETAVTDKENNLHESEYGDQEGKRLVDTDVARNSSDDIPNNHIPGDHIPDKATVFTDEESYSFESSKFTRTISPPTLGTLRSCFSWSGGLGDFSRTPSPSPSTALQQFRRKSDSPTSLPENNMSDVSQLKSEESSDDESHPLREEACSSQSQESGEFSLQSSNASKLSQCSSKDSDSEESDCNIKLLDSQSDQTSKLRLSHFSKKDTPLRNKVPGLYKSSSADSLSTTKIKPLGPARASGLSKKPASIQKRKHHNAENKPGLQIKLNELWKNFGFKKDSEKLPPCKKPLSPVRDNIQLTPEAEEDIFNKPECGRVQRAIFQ
UniProt P15927: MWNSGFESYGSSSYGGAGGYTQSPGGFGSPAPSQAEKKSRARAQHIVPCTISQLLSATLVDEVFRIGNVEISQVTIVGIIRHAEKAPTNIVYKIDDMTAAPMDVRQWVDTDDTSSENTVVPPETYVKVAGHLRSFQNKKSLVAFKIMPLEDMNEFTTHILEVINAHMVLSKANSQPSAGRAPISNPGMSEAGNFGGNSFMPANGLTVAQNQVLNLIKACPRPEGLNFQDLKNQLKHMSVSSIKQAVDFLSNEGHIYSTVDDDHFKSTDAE

T1: V5-tagged EEPD1 (Exonuclease/Endonuclease/Phosphatase Domain-1) (human) (UniProt Q7L9B9)
T1 sequence: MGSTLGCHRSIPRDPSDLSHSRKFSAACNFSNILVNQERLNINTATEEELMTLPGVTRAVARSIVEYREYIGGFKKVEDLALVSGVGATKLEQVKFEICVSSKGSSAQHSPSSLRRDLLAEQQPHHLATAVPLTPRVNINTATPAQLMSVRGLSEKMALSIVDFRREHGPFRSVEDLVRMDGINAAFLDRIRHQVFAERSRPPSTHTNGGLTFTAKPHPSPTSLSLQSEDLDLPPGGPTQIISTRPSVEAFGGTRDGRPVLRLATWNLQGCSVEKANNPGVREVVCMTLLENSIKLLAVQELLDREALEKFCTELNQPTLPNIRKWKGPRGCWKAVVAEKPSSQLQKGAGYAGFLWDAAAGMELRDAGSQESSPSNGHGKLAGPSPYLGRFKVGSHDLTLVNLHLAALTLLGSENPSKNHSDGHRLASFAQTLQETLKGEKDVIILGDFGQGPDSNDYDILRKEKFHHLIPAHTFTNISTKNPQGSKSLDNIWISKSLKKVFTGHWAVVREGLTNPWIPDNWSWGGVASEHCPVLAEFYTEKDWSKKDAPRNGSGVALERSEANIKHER

B1: Dna2 (protein, UniProt P51530 1-1060)
chain: MEQLNELELLMEKSFWEEAELPAELFQKKVVASFPRTVLSTGMDNRYLVLAVNTVQNKEGNCEKRLVITASQSLENKELCILRNDWCSVPVEPGDIIHLEGDCTSDTWIIDKDFGYLILYPDMLISGTSIASSIRCMRRAVLSETFRSSDPATRQMLIGTVLHEVFQKAINNSFAPEKLQELAFQTIQEIRHLKEMYRLNLSQDEIKQEVEDYLPSFCKWAGDFMHKNTSTDFPQMQLSLPSDNSKDNSTCNIEVVKPMDIEESIWSPRFGLKGKIDVTVGVKIHRGYKTKYKIMPLELKTGKESNSIEHRSQVVLYTLLSQERRADPEAGLLLYLKTGQMYPVPANHLDKRELLKLRNQMAFSLFHRISKSATRQKTQLASLPQIIEEEKTCKYCSQIGNCALYSRAVEQQMDCSSVPIVMLPKIEEETQHLKQTHLEYFSLWCLMLTLESQSKDNKKNHQNIWLMPASEMEKSGSCIGNLIRMEHVKIVCDGQYLHNFQCKHGAIPVTNLMAGDRVIVSGEERSLFALSRGYVKEINMTTVTCLLDRNLSVLPESTLFRLDQEEKNCDIDTPLGNLSKLMENTFVSKKLRDLIIDFREPQFISYLSSVLPHDAKDTVACILKGLNKPQRQAMKKVLLSKDYTLIVGMPGTGKTTTICTLVRILYACGFSVLLTSYTHSAVDNILLKLAKFKIGFLRLGQIQKVHPAIQQFTEQEICRSKSIKSLALLEELYNSQLIVATTCMGINHPIFSRKIFDFCIVDEASQISQPICLGPLFFSRRFVLVGDHQQLPPLVLNREARALGMSESLFKRLEQNKSAVVQLTVQYRMNSKIMSLSNKLTYEGKLECGSDKVANAVINLRHFKDVKLELEFYADYSDNPWLMGVFEPNNPVCFLNTDKVPAPEQVEKGGVSNVTEAKLIVFLTSIFVKAGCSPSDIGIIAPYRQQLKIINDLLARSIGMVEVNTVDKYQGRDKSIVLVSFVRSNKDGTVGELLKDWRRLNVAITRAKHKLILLGCVPSLNCYPPLEKLLNHLNSEKLIIDLPSREHESLCHILGDFQRE

Results are given in words; binding and its absence hold for the method and conditions named. Binding seen in cells or lysates may run through a third protein. Some binding calls cover weakened binding; strength is not graded here. Where a sequence is shown, tags or fusion partners need not be part of it.

This experiment addresses T1, V5-tagged EEPD1 (Exonuclease/Endonuclease/Phosphatase Domain-1) (human). The experiment in a line: co-IP; V5 mouse antibody cross-linked to protein A/G magnetic beads, incubated with lysate (0.8-1.2 mg) of HEK-293 cells overexpressing V5-tagged EEPD1, 1 h at RT; in the presence of DNase; with or without replication stress.
With BLM (from UniProt P54132 1-1417), the binding entry was “binds”.

Consider Exo1 (from UniProt Q9UQ84 1-846), for which the binding entry was “binds”.

Turning to RPA32 (from UniProt P15927 1-270), the binding entry is recorded as “binds”.

Consider B1, for which the binding entry is reported as “no binding”.
